# Literature values, collected in patent US20110183889A1, “SALICYLANILIDE MODIFIED PEPTIDES FOR USE AS ORAL THERAPEUTICS” (The Regents of the University of California, priority 2007, published 2011).
# At least one compound was matched to its structure with a doubt left.
# Tested on: HDL function
# Details: drinking water of apoE null mice for 24 hours; D-4F 1 μg/ml, statin 0.05 mg/ml; related application U.S. Ser. No. 10/423,830; cited from earlier work
compound,measurement,value
CC[C@H](C)C(=O)O[C@H]1C[C@H](O)C=C2C=C[C@H](C)[C@H](CC[C@@H](O)C[C@@H](O)CC(=O)O)[C@H]21 [pravastatin],HDL function,did not improve HDL function
